Laboratory results reported in PubChem BioAssay AID1794845 (National Center for Advancing Translational Sciences (NCATS), 2023).
Fewer than 10 of roughly 6,900 compounds were called active. Calls come from the whole dose curve; as a rule, active = well fitted curve in the direction sought with a large enough effect; inconclusive = small, poorly fitted or top-dose-only effect, or another doubt; inactive = no such curve, though single readings can be large or run the other way. The list shows a part of the results.

Sequences of proteins named here, by UniProt entry; tags and fusion partners are left off. A change or cut given only in a name is not applied to a line headed by its entry.
UniProt C7C422: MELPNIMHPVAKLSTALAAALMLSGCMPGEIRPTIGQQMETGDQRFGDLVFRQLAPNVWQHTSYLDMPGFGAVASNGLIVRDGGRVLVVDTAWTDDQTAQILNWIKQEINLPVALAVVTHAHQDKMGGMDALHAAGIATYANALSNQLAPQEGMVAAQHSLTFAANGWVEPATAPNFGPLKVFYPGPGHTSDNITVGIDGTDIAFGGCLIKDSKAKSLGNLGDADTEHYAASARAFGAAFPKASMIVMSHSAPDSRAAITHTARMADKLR

molecular target: Metallo-beta-lactamase type 2 (Klebsiella pneumoniae) (UniProt C7C422); test: qHTS to identify inhibitors of the New Delhi Metallo-beta-lactamase (NDM): primary screen against the NCATS Gemini Collection; conditions: NDM-1 enzyme, meropenem hydrolysis, absorbance 300 nm; at 38.4 µM (top of the series) unless noted; note: % of control where 0% means no effect
Method in brief: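 NDM-1 at 2 nM final in 50 mM HEPES pH 7.0, 1 uM ZnSO4, 0.01% Tween20, preincubated >30 min with compound. Meropenem 50 uM final added; absorbance at 300 nm after 30 min.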

SMILES | activity % (negative = inhibition)
Cc1ccccc1S(=O)(=O)N1CCCC2(C1)Nc1cccnc1NC2=NC1CCCC1 (stereo not given) | inactive: 0.953%
C[C@@H]1CN(c2ccc(C(=O)N3CCC(N4CCOCC4)CC3)cn2)C[C@H](C)O1 | inactive: 8.83%
CC(NC(=O)CN1C(=O)NC2(CCS(=O)(=O)CC2)C1=O)c1ccccc1 (stereo not given) | inactive: -16.8%
O=[S+]([O-])(c1ccccc1)N1CC(Oc2ccc(F)c(F)c2)C1 | inactive: 0.56%
Cn1ccc(C(=O)NCc2nnc3n2C(C(=O)NCCc2ccc(Cl)cc2)CC3)n1 (stereo not given) | inactive: 9.1%
COc1c[nH]c(CN2CCN(C)C3(CCC(=O)N(C)CC3)C2)cc1=O (stereo not given) | inactive: 7.56%
COCCc1ccc(OCc2ccccc2-c2ccc(=O)n(C)n2)cc1 | inactive: 46%
Cc1ccc(C(=O)N2CCCCCNC(=O)CC2c2ccccc2)s1 (stereo not given) | inactive: 20.6%
O=C(Nc1ccccc1)O[C@@H]1CO[C@H]2[C@@H]1OC[C@@H]2NC(=S)Nc1ccc(F)cc1 | inactive: -2.71% [at 57.5 µM]
FC(F)(F)CN1C2CCC1CN(c1cncc(Cl)n1)C2 | inactive: -5.85%
CN1CC2(CCN(C(=O)c3cccn3C)CC2)CC(c2ccccc2)C1=O (stereo not given) | inactive: 0.386%
CN(Cc1cccc(OC(F)(F)F)c1)C(=O)C1(c2ccc(Cl)cc2)CCOCC1 | inactive: 4.31%
O=C(c1n[nH]c2ccccc12)N1CCC(Cc2nc(-c3ccncc3)n[nH]2)CC1 | inactive: -2.41%
O=C(NC1CCCC1)c1cc2cn(C3CC3)cc2s1 | inactive: 39.2%
Cc1ccc(NC(=O)[C@@H]2CNC[C@H](C(=O)NCc3ccccn3)C2)cn1 | inactive: 37.1%
CC(C)c1nc2c(c(-c3ccc(O)cc3)n1)CN(Cc1cccn1C)CC2 | inactive: 11.2%
Cn1nc(C2CCN(C(=O)c3ccccn3)CC2)c2c1CCOC2 | inactive: -1.39%
COc1cccc(CN2Cc3cc(NC(=O)Cc4ccccc4)ccc3OCC2=O)c1 | inactive: -0.433%
CN(C)S(=O)(=O)N1CC(CNC(=O)C2CC2)C2(CCCCC2)C1 (stereo not given) | inactive: -1.41%
CC(C)C(=O)N1CCC2(CCC(=O)N(CC3CC3)CC2)CC1 | inactive: -1.47%
Cc1[nH]cnc1CN1CCc2nc(C(=O)NCCOc3ccccc3)oc2CC1 | inactive: 4.31% [at 57.5 µM]
O=C(NC1CCc2nnc(C3CC3)n2CC1)c1cnco1 (stereo not given) | inactive: -13%

SMILES | activity % (negative = inhibition)
CNc1cc(C2CC(NS(=O)(=O)c3ccc(Cl)s3)C2)nc(N)n1 (stereo not given) | inactive: -3.64%
CCc1ccc(C(=O)N2CC(c3nnc(C(C)C)o3)C3(CCOCC3)C2)cc1 (stereo not given) | inactive: -2.65%
O=C1COc2ccc(N3CCCC3)nc2CN1Cc1ccc(C(F)(F)F)cc1 | inactive: -2.19% [at 57.5 µM]
CCCNC(=O)N1CCC(n2c(C)cnc2C2CCOCC2)CC1 | inactive: -0.78%
COc1ccc(CC(=O)N2C[C@@H](CO)[C@H](c3ccccn3)C2)cc1 | inactive: -0.0381%
O=C(Cc1cccs1)N1CCCn2cc(-c3ccccc3F)nc21 | inactive: 17%
COc1ccc(CN2CCCC(COc3ccccc3C(=O)NC3CC3)C2)c(OC)c1 (stereo not given) | inactive: 2.86%
Cc1noc(C2CC3(CCN(C(=O)CCc4c[nH]c5ccccc45)CC3)CN2C)n1 (stereo not given) | inactive: 1.1%
O=C(c1cc(-c2ccc(Cl)cc2Cl)c2cccn2n1)N1CCCC1 | inactive: 16.7%
O=c1c2c(CO)c(-c3ccccc3)nn2ccn1Cc1ccccc1 | inactive: -1.76%
O=C(Nc1ccc2c(c1)OCCO2)N1CCC(Cc2nc(-c3ccncc3)n[nH]2)C1 (stereo not given) | inactive: 2.28%
CCCS(=O)(=O)N1CCCC(Cc2noc(-c3cnccn3)n2)C1 (stereo not given) | inactive: 11.3%
O=C(c1ccc(Cl)cc1)N1CC2(CCCN2C2COC2)Cc2ccccc21 (stereo not given) | inactive: 3.87%
Cc1cccnc1NCCNC(=O)c1ccc(S(N)(=O)=O)cc1 | inactive: 13%
CC(C)C1CN(c2ccc(C#N)cn2)CCC(=O)N1Cc1ccc(F)cc1 (stereo not given) | inactive: 4.9%
COc1nccnc1NC1CCN(C(=O)c2cccc(C)c2)CC1 | inactive: -11.5%
C1CCC(c2noc(COCC3CC3)n2)NC1 (stereo not given) | inactive: -1.02%
c1ccc(CN2CCc3[nH]cnc3C2c2ccc(-c3ccccn3)cc2)nc1 (stereo not given) | inactive: 62%
Cc1ccccc1CN1CC2(COCC1=O)CN(c1ccc(C(F)(F)F)cn1)C2 | inactive: 2.42% [at 57.5 µM]
Cc1nc(C)c(C(=O)N2CCCC2c2nc(CCOCC3CCCC3)no2)s1 (stereo not given) | inactive: -0.495%
CC1CCN([C@@H]2[C@H](O)[C@H](CO)O[C@@H]2CNC(=O)c2ccc(F)c(Cl)c2)CC1 | inactive: -3.84%
Cc1cc(C(=O)N2CCCC[C@H](N(C)C)C2)c(-c2ccccc2)o1 | inactive: 9.87%

SMILES | activity % (negative = inhibition)
CS(=O)(=O)c1cnc(NCCn2ccnc2)nc1C1CCCNC1 (stereo not given) | inactive: 20.5%
CC(C)c1cc(C(=O)N2CCn3nc(C(=O)Nc4ccccc4)cc3C2)n[nH]1 | inactive: 10.7%
CCC[C@H](N)C(=O)N1CCC2(CCC(=O)N(Cc3cnc(C)cn3)C2)CC1 | inactive: -0.103%
Cc1nc(-c2c3n(c(=O)n(CC(=O)NCc4cccs4)c2=O)CCCCC3)no1 | inactive: -1.57%
O=C(NC1CCN(c2cc(-c3cccs3)[nH]n2)C1)c1cccnc1 (stereo not given) | inactive: -0.143%
CC(C)Cc1nc2nccc(-c3ccsc3)n2n1 | inactive: 16.6%
CN1C[C@@H](NS(=O)(=O)c2ccc(C#N)cc2)C[C@H]1c1nc(-c2ccc(Cl)cc2)no1 | inactive: 7.95%
C[C@H](O)c1c(-c2ccc(F)cc2)noc1C(=O)N1CCCC1 | inactive: 12.4% [at 57.5 µM]
NC(=O)[C@H](CC1CCCCC1)NC(=O)[C@@H]1CN(C(=O)Nc2ccccc2)CCN1C(=O)C1CCCCC1 | inactive: -1.6%
CC(C)CN1CCC[C@H]1c1nc(-c2ccnc(NS(C)(=O)=O)c2)no1 | inactive: 5.43% [at 57.5 µM]
COCCOc1ccc(-c2noc([C@@H]3CCCN3C3CCCCC3)n2)cn1 | inactive: 1.62% [at 57.5 µM]
CN1CCN(CCNC(=O)c2cc(-c3ccccc3)cn2C)CC1 | inactive: 20.7%
CCNc1nccc(N2CCC(CC(=O)NCC(C)C)CC2)n1 | inactive: 0.497%
COCc1noc(-c2ccc(NC[C@H]3CCc4ccccc4O3)nc2)n1 | inactive: 27.2%
Cc1ccc(C(=O)N2CCC(N3CCOCC3=O)CC2)cc1 | inactive: -2.85%
Cn1ccnc1C(=O)N1C[C@@H](COCC2CC2)[C@H](c2ccncc2)C1 | inactive: 5.46%
CN(C)CCN(C)[C@@H]1[C@H](O)[C@H](CO)O[C@@H]1CNCc1cccc(Cl)c1 | inactive: 4.47%
Cc1cccc(-c2nc3ccc(C(=O)NC4CCCCCC4)cc3o2)n1 | inactive: 29% [at 57.5 µM]
COc1cccc(-c2cccc(C(=O)N3CCN(C(C)=O)CC3)c2)c1 | inactive: -0.364% [at 57.5 µM]
CC(=O)N1C[C@@H](CN(C)C)[C@H](NC(=O)Cc2ccc(OC(F)(F)F)cc2)C1 | inactive: 20.9%
O=C(CCCc1ccccc1)Nc1ccnn1C1CCN(C(=O)CCc2cnccn2)CC1 | inactive: -0.63%
Fc1ccc2nc(CO[C@H]3CN(C4CCOCC4)C[C@H]3F)[nH]c2c1 | inactive: 3.56% [at 57.5 µM]

SMILES | activity % (negative = inhibition)
COc1cccc(-c2cccc(C(=O)N3CCN([S+](=O)([O-])c4ccc(C)cc4)CC3)c2)c1 | inactive: 19.2%
CN1C[C@H](NCc2nccs2)CCC[C@@H](C(=O)NC2CCOCC2)CC1=O | inactive: -2.79% [at 57.5 µM]
Cc1cc(-c2cc(C(=O)NCc3c(C)cc(C)[nH]c3=O)c3c(c2)ncn3C)ccn1 | inactive: 32.2% [at 57.5 µM]
CC(C)NCC1(COc2ccccc2)C[C@@H](O)[C@@H](O)C1 (stereo not given in full) | inactive: -0.832% [at 77.1 µM]
COCCn1ncc(N2CCCC(CC(=O)O)C2)cc1=O (stereo not given) | inactive: 5.5%
CC(=O)N[C@@H]1CN(S(=O)(=O)N2CCOCC2)C[C@H]1c1ccc(C)o1 | inactive: 29%
C[C@]1(O)CCN(C(=O)c2cc(-c3ccsc3)n[nH]2)C[C@@H]1O | inactive: 5.78%
CC(C)c1noc(-c2cn(C3CCN(C(=O)Cc4ccc(F)cc4)C3)nn2)n1 (stereo not given) | inactive: -2.13%
O=C1N(Cc2ccccc2F)CCOC12CCN(Cc1ccc(F)cc1F)CC2 | inactive: 28% [at 57.5 µM]
Cn1cccc1C(=O)N1CC[C@H](NC(=O)Nc2ccc(F)cc2F)[C@H]1C(=O)N[C@H](Cc1ccccc1)C(N)=O | inactive: -0.0836%
O=C(O)CCc1cc2n(n1)CCCN(C(=O)c1cc3c([nH]c1=O)CCC3)C2 | inactive: 6.54%
COCCNC(=O)c1ccc2c(c1)N(C)C(CC(=O)NCC(C)C)CO2 (stereo not given) | inactive: 7.94%
CCc1ccccc1NC(=O)c1cc2c(N3CCSCC3)nc(C)cn2n1 | inactive: 3.67%
O=C1OC2(CCN(C(=O)c3ccco3)CC2)CN1CCOc1ccccc1 | inactive: 21.6%
O=C(Nc1ccccc1C(F)(F)F)N1CCCC(Cn2cnc3cccnc32)C1 (stereo not given) | inactive: -0.209%
Cc1cc(C(=O)N2CCC(F)(c3nc(-c4ccncc4)no3)CC2)n[nH]1 | inactive: -1.79%
Cc1cc(C)n(CC(=O)N2CCCCCCNC(=O)[C@@H]3CCCC[C@@H]32)n1 | inactive: 11.4%
CNC(=O)[C@@H]1C[C@H](Oc2ccccc2)CN1S(=O)(=O)c1cccs1 | inactive: 2.65%
O=C([C@H]1C[C@H](Oc2cccnc2)CN1C(=O)c1ccc2ccccc2n1)N1CCOCC1 | inactive: 27%

Pulled one by one from the entries so far:
SMILES | activity % (negative = inhibition)
C1CCC(c2noc(COCC3CC3)n2)NC1 (stereo not given) | inactive: -1.02%
CC(C)c1noc(-c2cn(C3CCN(C(=O)Cc4ccc(F)cc4)C3)nn2)n1 (stereo not given) | inactive: -2.13%
CC1CCN([C@@H]2[C@H](O)[C@H](CO)O[C@@H]2CNC(=O)c2ccc(F)c(Cl)c2)CC1 | inactive: -3.84%
Cc1ccccc1S(=O)(=O)N1CCCC2(C1)Nc1cccnc1NC2=NC1CCCC1 (stereo not given) | inactive: 0.953%
CC(C)c1nc2c(c(-c3ccc(O)cc3)n1)CN(Cc1cccn1C)CC2 | inactive: 11.2%
O=C(Nc1ccc2c(c1)OCCO2)N1CCC(Cc2nc(-c3ccncc3)n[nH]2)C1 (stereo not given) | inactive: 2.28%
